We go through two compounds from patent US11649228B2, “Zinc indicators for cellular imaging” (The Board of Regents of the University of Texas System, priority 2018, dated 2023).

This series is described as follows: Zn^2+ titration of ZIGIRs by fluorescence emission (Hill plot). Format: binding. As for the experimental part:
UV-Vis spectra were recorded in a 1-cm path quartz cell on a Shimadzu 2401 PC spectrometer. Fluorescence excitation and emission spectra were recorded on a Fluorolog 3 spectrometer (Jobin-Yvon Horiba, Edison, N.J.). Zinc titration was performed by adding ZIGIRs (0.5 μM final concentration) to buffered Zn^2+ solutions containing 100 mM HEPES (pH 7.4). Nitrilotriacetic acid (NTA, 10 mM) and varying concentrations of ZnSO4 (0-9 mM) were mixed to reach free Zn^2+ concentrations between 0.1 nM and 40 nM (Li et al., 2011). Zn^2+ concentrations above 40 nM were controlled by iminodiacetate (IDA, 10 mM) and varying amounts of ZnSO4 (0-9.7 mM) in 100 mM HEPES (pH 7.4; Sasaki et al., 2011). To determine Zn^2+ binding dissociation constants (Kd(Zn^2+)), the Zn^2+ titration data were fitted to the least square exponential equation (Prism 7). Fluorescence quantum yields of ZIGIRs at pH 7.5 were determined using rhodamine 6G as the reference (Φfl=0.94 in MeOH; Magde et al., 2002). An example in shown FIGS. 11A0B. To examine the pH sensitivity of ZIGIRs, the fluorescence emission spectra was recorded from pH 3-9.4 in either nominally Zn^2+-free solutions containing 5 mM iminodiacetate or in 25 μM ZnSO4 solutions. […]

For `CN=c1ccc2c(-c3ccc(NCCN(CCc4ccccn4)Cc4ccccn4)cc3C(=O)O)c3ccc(NC)cc3oc-2c1` [ZIGIR-1], the “nH (Hill coefficient)” value is recorded as 0.99.
Regarding `CN(C)c1ccc2c(-c3ccc(NCCN(CCc4ccccn4)Cc4ccccn4)cc3C(=O)[O-])c3ccc(=[N+](C)C)cc-3oc2c1` [ZIGIR-2], the “nH (Hill coefficient)” value is 1.03.
